From PubChem BioAssay AID2685 (National Center for Advancing Translational Sciences (NCATS), 2010)
Some of the results follow. Shown are side measurements of this screen, not its main read-out; they come without a call. Compounds called inactive in the main read-out are mostly missing here. Potencies come from curve fits of mixed quality, noted in brackets.

Assay: qHTS Assay for Lipid Storage Modulators in Drosophila S3 Cells;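 as to cell number change: cells counted by Cell Tracker Red CMTPX staining in the red channel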
Conditions: BODIPY lipid droplet fluorescence, 18-24 h; for cell number change: measured here: cell count max response, cells fed with added oleic acid
Outline: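 Drosophila S3 cells got compounds at several concentrations plus oleic acid (400 uM solution). Laser-scanning cytometry with 488 nm excitation read lipid droplets at 500-530 nm and cells at 575-640 nm. Percent activity was relative to 20 uM Triacsin C.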

[1] = measured here: lipid fluorescence (Fed channel) AC50, cells fed with added oleic acid
[2] = measured here: cell number channel AC50, cells fed with added oleic acid

SMILES	cell number change [%]	AC50 [1]	AC50 [2]
COc1ccc(CNC(=O)C2COc3ccccc3O2)c(OC)c1 (stereo not drawn)	3.76	2.31 µM [rising, full curve, poor fit]	
CC(=O)O[C@H]1[C@H](C)OC=C[C@@H]1OC(C)=O	12.6	1.84 µM [rising, full curve, poor fit]	
CCN(/C=N/c1sc2c(c1C#N)CCCCC2)CC	-26.8	6.51 µM [falling, single point]	3.66 µM [falling, full curve, poor fit]
O=C(OCc1nc2ccc(Cl)cc2n1CCO)c1ccc(O)cc1	24.3		
COc1ccc(C)cc1S(=O)(=O)Nc1cccnc1	58.3		29.1 µM [rising, single point]
Cn1c(SCC(=O)N2CCOCC2)nnc1-c1ccco1	19.2		0.0058 µM [rising, full curve, poor fit]
CC(C)CCNC(=O)c1ccc(Cn2c(=S)[nH]c3ccccc3c2=O)cc1	82.4		4.11 µM [rising, partial curve, poor fit]
CCc1nnc(NS(=O)(=O)c2ccc(NCc3cc(Br)ccc3O)cc2)s1	-30.2	11.6 µM [falling, partial curve]	29.1 µM [falling, single point]
CCCOC(=O)CCc1n[nH]c(=O)[nH]c1=O	-4.01	32.6 µM [falling, single point]	
COc1ccc(C2N(c3cccc(Cl)c3)C(=O)C3CCCN32)cc1 (stereo not drawn)	12.4	0.13 µM [rising, full curve, poor fit]	
C=CCc1ccc(OCCCCN2CC(C)CC(C)C2)c(OC)c1 (stereo not drawn)	-42.5		29.1 µM [falling, single point]
CC(=O)c1ccc(NC(=O)CSc2nc(=O)n3cccc(C)c3n2)cc1	37.6	29.1 µM [rising, partial curve, poor fit]	0.326 µM [rising, full curve]
CC1(C)CC(=O)c2cc(C(=O)Nn3cnnc3)c(=O)n(-c3ccccc3)c2C1	-10.1	25.9 µM [falling, partial curve, poor fit]	
COc1cccc(C(=O)Nc2nc(-c3ccccc3)c(-c3ccccc3)o2)c1	-6.58	1.84 µM [falling, partial curve, poor fit]	0.13 µM [falling, full curve, poor fit]
COCCNC(=O)c1ccc(N2CCC3(CC2)OCCO3)c([N+](=O)[O-])c1	16.1		
CCOC(=O)c1nnn(-c2nonc2N)c1-c1ccc(F)cc1	19.7		
CCO[C@@H]1OC(C(=O)NCc2nc3ccccc3[nH]2)=C[C@H](c2ccccc2)[C@H]1CCCO	-16.9	29.1 µM [falling, single point]	
COC(=O)c1nc(N)sc1-c1ccc(Cl)c(Cl)c1	1.46	1.3 µM [rising, full curve]	
COc1cc(NC(=O)Cn2nc(Cc3cccnc3)c3ccccc3c2=O)cc(OC)c1OC	0.264	0.731 µM [rising, full curve]	
COc1ccccc1NC(=O)CSc1nc(N)c(-c2ccccc2)c(=O)[nH]1	-2.35	3.26 µM [falling, full curve, poor fit]	
COc1cccc(C(=O)C(C#N)=C(SC)SC)c1	-57	7.31 µM [falling, partial curve]	6.51 µM [falling, partial curve]

Record cards, from the list above.
CCCOC(=O)CCc1n[nH]c(=O)[nH]c1=O is entered as cell number change [%]: -4.01; AC50 [1]: 32.6 µM [falling, single point]
O=C(OCc1nc2ccc(Cl)cc2n1CCO)c1ccc(O)cc1 is entered as cell number change [%]: 24.3

Limited to cell number change [%] and AC50 [2], for some of the entries so far:
SMILES,cell number change [%],AC50 [2]
O=C(OCc1nc2ccc(Cl)cc2n1CCO)c1ccc(O)cc1,24.3,
COc1ccc(C)cc1S(=O)(=O)Nc1cccnc1,58.3,"29.1 µM [rising, single point]"
CC(=O)c1ccc(NC(=O)CSc2nc(=O)n3cccc(C)c3n2)cc1,37.6,"0.326 µM [rising, full curve]"

Carrying on.

SMILES	cell number change [%]	AC50 [1]	AC50 [2]
O=C(N/C=C/n1cnc2cc(C(F)(F)F)ccc21)c1ccccc1	-141	20.6 µM [falling, partial curve]	25.9 µM [falling, partial curve]
CNc1nc(NC#N)nc(SC)n1	-31.6		29.1 µM [falling, single point]
O=C(N/N=C/c1ccccc1)c1cc(-c2ccc3c(c2)OCO3)n[nH]1	9.84		
CC(C)c1c(O)nc(SCc2ccccc2)[nH]c1=O	-38.5	0.164 µM [falling, full curve]	29.1 µM [falling, single point]
COCCCNC(=O)C1CC(=O)OC1c1ccc(OC)c(OC)c1 (stereo not drawn)	-0.265		1.3 µM [rising, single point]
CCCCN(C(=O)C1CCC1)c1c(N)n(CC(C)C)c(=O)[nH]c1=O	-7		
O=c1[nH]n(-c2ccccn2)c(=O)c2ccccc12	-1.28		
O=C(O)CCC(=O)Nc1ccc(-c2nc3ccc(C(=O)c4ccccc4)cc3[nH]2)cc1	0.88	0.58 µM [rising, full curve, poor fit]	
CC(=O)OCC1OC(n2ccc(=O)[nH]c2=O)C(O)C1O (stereo not drawn)	3.03	0.517 µM [falling, full curve, poor fit]	
O=C(O)CC(SCC(=O)Nc1ccccc1)C(=O)O (stereo not drawn)	38		
CC1CC(C)CN(C(=O)CCCn2c(=S)[nH]c3ccccc3c2=O)C1 (stereo not drawn)	1.81		
CCN(C(=O)COC(=O)CNS(=O)(=O)c1ccccc1)c1ccccc1	-71.6	29.1 µM [falling, single point]	29.1 µM [falling, single point]
CC12CN3CC(C)(CN(C1)C3c1ccc(Cl)cc1Cl)C2O (stereo not drawn)	-16.4		
COc1ccc(-c2cc3nc(C)cc(NCCO)n3n2)cc1	-2.56		0.103 µM [falling, full curve, poor fit]
O=C(CSc1nnnn1Cc1ccccc1)Nc1ccccc1	-15.6	8.2 µM [rising, partial curve, poor fit]	
COc1cc(NC(=O)Cn2nc(C(F)(F)F)c3c2CCCC3)cc(OC)c1OC	9.37	2.31 µM [rising, partial curve]	
CNC(=S)NC1CC2CCCC(C1)N2Cc1ccccc1OC (stereo not drawn)	2.36	29.1 µM [falling, single point]	
O=C(NCC(O)CO)c1csc(Nc2cccc3ccccc23)n1 (stereo not drawn)	16.7		
CCOC(=O)/C=C1\CN(Cc2cc(OC)c(OC)c(OC)c2)S(=O)(=O)c2ccccc21	-12.3	13 µM [rising, single point]	
CC(C)(CNC(=O)c1ccc(S(=O)(=O)N2CCCC2)cc1)N1CCOCC1		0.058 µM [rising, partial curve, poor fit]	0.0517 µM [rising, full curve, poor fit]
Cc1cc2c(c(=O)n1Cc1cccnc1)C(c1ccc(F)cc1)C(C#N)=C(N)O2 (stereo not drawn)	89.2	0.259 µM [rising, partial curve]	7.31 µM [rising, partial curve]

SMILES	cell number change [%]	AC50 [1]	AC50 [2]
Cc1onc(-c2c(F)cccc2Cl)c1C(=O)NNC(=O)C1CCN(Cc2ccccc2)CC1	8.61		
Cc1ccc(C(=O)OCC(=O)c2ccc(Cl)s2)s1	-13.5	0.0291 µM [falling, full curve, poor fit]	
Cc1ccc(Sc2ccc(CO)cc2[N+](=O)[O-])cc1	-18	0.146 µM [rising, full curve, poor fit]	
Cc1nc(C)n(CC(=O)c2ccc(Cl)cc2Cl)n1	1.05		
Cc1ccccc1Nc1cc(C(=O)NCC2CCCO2)c2ccccc2n1 (stereo not drawn)	17.1	10.3 µM [rising, partial curve]	
Cc1nonc1CN(C)C(=O)CC1C(=O)NCCN1Cc1ccccc1F (stereo not drawn)	-1.42	29.1 µM [rising, single point]	
Cn1c(Br)nc2c1c(=O)n(CC(O)COc1ccccc1)c(=O)n2C (stereo not drawn)	-10.2	0.092 µM [rising, full curve, poor fit]	
COC(C(=O)Nc1ccc(S(=O)(=O)Nc2cccc3ccccc23)cc1)c1ccccc1 (stereo not drawn)	1.51	0.0291 µM [rising, full curve, poor fit]	
CCOC(=O)CS(=O)(=O)CC(=O)Nc1ccc([N+](=O)[O-])cc1OC	35.5		29.1 µM [rising, single point]
O=S(=O)(c1ccc(Cl)cc1)N1CCN(c2nc(-c3cccs3)nc3ccccc23)CC1	30.6	10.3 µM [rising, partial curve]	11.6 µM [rising, partial curve]
Cc1ccc(-c2cc(C(=O)NN3CCOCC3)c3cc(Br)ccc3n2)o1	86.8		23.1 µM [rising, single point]
Cc1ccc2nc(N(CCCN(C)C)C(=O)c3ccc(S(=O)(=O)N4CCOCC4)cc3)sc2c1	10.7	0.355 µM [rising, full curve, poor fit]	
COc1cccc(CC(=O)NCC2COc3ccccc3O2)c1OC (stereo not drawn)	15	1.84 µM [rising, partial curve, poor fit]	
CO/N=C\CC(=O)Nc1ccc(Cl)cc1Cl	-11.7	23.1 µM [falling, single point]	
CS(=O)(=O)NCCNc1ccc(C(F)(F)F)cc1[N+](=O)[O-]	10.4		
COc1ccc(C2OCC3(CO2)SC(=O)NC3=O)cc1 (stereo not drawn)	-17.5		2.06 µM [rising, partial curve]
COc1cc(CN(CC2CCCO2)C(=O)c2cccs2)cc(OC)c1OC (stereo not drawn)		29.1 µM [rising, single point]	
O=C(NNc1ccccc1Br)C(O)(c1cccc(C(F)(F)F)c1)c1cccc(C(F)(F)F)c1	-74.1	4.61 µM [falling, partial curve, poor fit]	29.1 µM [falling, single point]
CCN(CC)CCCn1c(=S)[nH]c2ccc(Cl)cc2c1=O			6.51 µM [falling, single point]
